Results are given in words; binding and its absence hold for the method and conditions named. Binding seen in cells or lysates may run through a third protein. Some entries that bind do so weakly or less than the wild type.

By UniProt entry, the sequences of proteins in these tests, tags left out.
UniProt Q3UFQ8: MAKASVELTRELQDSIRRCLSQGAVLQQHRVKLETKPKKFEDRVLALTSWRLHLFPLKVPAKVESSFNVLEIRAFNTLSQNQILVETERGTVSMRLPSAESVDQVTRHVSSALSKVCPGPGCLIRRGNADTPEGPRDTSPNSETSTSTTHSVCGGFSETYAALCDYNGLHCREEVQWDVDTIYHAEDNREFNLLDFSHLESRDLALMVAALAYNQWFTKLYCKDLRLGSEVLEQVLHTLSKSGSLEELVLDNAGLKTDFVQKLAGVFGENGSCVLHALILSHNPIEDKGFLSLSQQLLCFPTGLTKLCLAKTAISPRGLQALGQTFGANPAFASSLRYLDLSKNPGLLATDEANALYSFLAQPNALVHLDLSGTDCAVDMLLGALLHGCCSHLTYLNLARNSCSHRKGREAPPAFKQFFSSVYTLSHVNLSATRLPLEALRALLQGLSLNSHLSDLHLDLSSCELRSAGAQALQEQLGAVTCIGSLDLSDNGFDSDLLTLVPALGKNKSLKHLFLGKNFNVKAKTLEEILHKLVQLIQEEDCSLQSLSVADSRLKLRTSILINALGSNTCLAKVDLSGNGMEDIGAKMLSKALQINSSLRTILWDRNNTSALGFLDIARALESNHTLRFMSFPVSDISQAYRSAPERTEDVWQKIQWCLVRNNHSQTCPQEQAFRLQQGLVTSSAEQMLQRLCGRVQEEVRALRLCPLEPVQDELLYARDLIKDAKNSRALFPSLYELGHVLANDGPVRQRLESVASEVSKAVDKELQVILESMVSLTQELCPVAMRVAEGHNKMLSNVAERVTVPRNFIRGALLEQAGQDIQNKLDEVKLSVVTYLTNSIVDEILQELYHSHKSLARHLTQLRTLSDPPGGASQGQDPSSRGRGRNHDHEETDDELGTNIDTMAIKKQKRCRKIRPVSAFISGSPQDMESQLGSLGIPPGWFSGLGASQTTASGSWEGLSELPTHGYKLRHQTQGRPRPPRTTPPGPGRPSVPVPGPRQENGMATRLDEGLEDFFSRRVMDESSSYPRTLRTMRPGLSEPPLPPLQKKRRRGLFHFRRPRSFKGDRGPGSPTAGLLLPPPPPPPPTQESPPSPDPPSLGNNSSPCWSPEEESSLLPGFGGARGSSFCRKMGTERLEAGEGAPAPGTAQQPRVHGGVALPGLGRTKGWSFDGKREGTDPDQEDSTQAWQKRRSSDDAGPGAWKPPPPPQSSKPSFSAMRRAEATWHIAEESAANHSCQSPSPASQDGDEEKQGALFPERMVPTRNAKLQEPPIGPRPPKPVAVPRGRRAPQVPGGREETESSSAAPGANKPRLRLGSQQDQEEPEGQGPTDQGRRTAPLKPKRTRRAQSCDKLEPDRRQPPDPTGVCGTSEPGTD
UniProt Q812A2: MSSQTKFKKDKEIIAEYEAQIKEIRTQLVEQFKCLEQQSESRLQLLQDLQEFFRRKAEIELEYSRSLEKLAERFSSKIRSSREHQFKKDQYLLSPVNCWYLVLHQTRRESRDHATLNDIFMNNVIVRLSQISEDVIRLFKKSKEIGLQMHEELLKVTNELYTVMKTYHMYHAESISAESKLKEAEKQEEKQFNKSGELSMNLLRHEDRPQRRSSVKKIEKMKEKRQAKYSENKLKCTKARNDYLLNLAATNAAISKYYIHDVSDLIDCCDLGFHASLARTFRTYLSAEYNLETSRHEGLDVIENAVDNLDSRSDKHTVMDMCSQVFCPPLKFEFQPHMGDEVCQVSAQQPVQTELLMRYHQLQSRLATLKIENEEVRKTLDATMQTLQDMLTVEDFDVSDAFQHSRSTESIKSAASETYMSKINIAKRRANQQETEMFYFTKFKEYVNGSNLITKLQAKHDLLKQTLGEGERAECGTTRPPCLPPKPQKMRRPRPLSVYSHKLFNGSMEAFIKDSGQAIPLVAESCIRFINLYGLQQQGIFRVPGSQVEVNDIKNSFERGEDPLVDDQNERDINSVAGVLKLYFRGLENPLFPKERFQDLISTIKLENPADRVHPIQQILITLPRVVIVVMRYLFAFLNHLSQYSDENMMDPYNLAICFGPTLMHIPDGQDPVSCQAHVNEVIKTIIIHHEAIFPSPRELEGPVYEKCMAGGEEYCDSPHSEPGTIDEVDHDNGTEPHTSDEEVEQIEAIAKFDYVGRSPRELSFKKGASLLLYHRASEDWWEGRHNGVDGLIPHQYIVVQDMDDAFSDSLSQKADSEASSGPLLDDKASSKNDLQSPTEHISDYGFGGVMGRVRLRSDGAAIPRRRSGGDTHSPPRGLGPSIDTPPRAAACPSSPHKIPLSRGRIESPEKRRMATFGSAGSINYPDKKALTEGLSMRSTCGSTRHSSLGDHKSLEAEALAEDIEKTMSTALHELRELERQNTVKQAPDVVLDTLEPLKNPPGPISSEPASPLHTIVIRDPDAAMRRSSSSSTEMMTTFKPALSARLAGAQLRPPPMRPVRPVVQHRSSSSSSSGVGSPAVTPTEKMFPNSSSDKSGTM

The target in assay [1] is HA epitope tagged CARMIL3 (UniProt Q3UFQ8). Kind of assay: co-IP; HEK293T cells co-transfected with HA-CARMIL3 constructs, Wrp constructs and CAPZB2-TwinStrepII; lysis in 25 mM HEPES, 150 mM NaCl, 0.5% Triton X-100, 1 mM EDTA; anti-HA beads overnight; blots with anti-HA, anti-V5, anti-capping protein beta.
Assay [2] has as its target endogenous CARMIL3-myc (mouse (endogenous in mouse brain)) (UniProt Q3UFQ8). Kind of assay: co-IP; P7 whole brain lysates of Cas9 KI mice with HITI myc-tagged endogenous CARMIL3, against uninfected pups; Myc beads (myc nano-trap resin); blots for Wrp, capping protein beta and ArpC3.

As to “V5-epitope tagged Wrp (full-length) (from UniProt Q812A2 1-1099)”, the binding result in assay [1] is on record as “binds”.
“endogenous Wrp (from UniProt Q812A2 1-1099)”: the binding result in assay [2] is reported as “binds”.

Source of the values: article PMC6344529.
